Test results as given in PubChem BioAssay AID595 (National Center for Advancing Translational Sciences (NCATS), 2007).
“And” between values parts separate entries of the source, which are not always exact repeats. Equal entries are not always repeated. The whole screen tested about 71,000 compounds, of which about 310 (0.44%) were called active. Inconclusive results, whose numbers are uncertain, are shown with a selection of clear calls. Calls come from the whole dose curve; as a rule, active = well fitted curve in either direction with a large enough effect; inconclusive = small, poorly fitted or top-dose-only effect, or another doubt; inactive = flat fitted curve, though single readings scatter. A potency beside an inconclusive call is a rough fit, not a confirmed value.

System: Hsp90 C-terminal peptide / TPR2A (Hop) interaction, human
Experiment: qHTS Assay for Disrupters of an Hsp90 Co-Chaperone Interaction
Details: AlphaScreen TPR2A-His6 binding biotin-Hsp90 C-terminal peptide; activity change, negative = inhibition: at 57 µM (top of the series) unless noted
% is set by controls: 0 for no effect and ±100 for the full control effect; potency is the fitted concentration of half-maximal effect.

Row | SMILES | activity change, negative = inhibition | Potency
1 | CCOC(=O)C1CCN(/C=C2/C(=O)NC(=O)N(c3ccc(OCC)cc3)C2=O)CC1 | inconclusive: 51.5% | –
2 | c1ccc(N2CCC3(CCNCC3)CC2)nc1 | inconclusive: 61.2% | –
3 | CCC(C)NC(=O)c1c(N)n(CCCOC)c2nc3ccccc3nc12 (centres undefined) | – | inconclusive: 25.1 µM [activator, single point]
4 | CCCCOCC1CO1 (centres undefined) | inconclusive: 33.8% | –
5 | CCOC(=O)c1cncn1C(C)c1ccccc1 (centres undefined) | inconclusive: 47.8% | –
6 | Cc1noc(C)c1C(=O)N1CCC2(CCCN(CC(C)C)C2)CC1 | inactive: -11.3% | –
7 | Cc1cc(N=Nc2ccccc2C)ccc1N | – | inconclusive: 25.1 µM [inhibitor, partial curve]
8 | N#CSCSC#N | inactive: -7.53% | –
9 | Clc1nc(Cl)nc(Cl)n1 | inconclusive: 42.8% | –
10 | Cc1cc(NC(=O)COC(=O)c2c(C)nn(Cc3ccccc3Cl)c2Cl)no1 | inconclusive: 46.8% | –
11 | CCn1nc(-c2ccccc2)nc2c(=O)n(C)c(=O)nc1-2 | – | active: 1.26 µM
12 | Clc1ccc(C(c2ccc(Cl)cc2)C(Cl)Cl)cc1 | – | active: 31.6 µM [activator]
13 | O=C(C[C@H](c1ccccc1)c1c(O)c2ccccc2oc1=O)c1ccccc1 | inactive: -1.05% [at 11 µM] | –
14 | COc1cc2c(cc1OC)-c1c(O)c(OC)cc3c1[C@@H](C2)N(C)CC3 | inconclusive: 19.3% | –
15 | CC(C)(C)[C@@]1(O)C[C@@H]2OC(=O)C[C@@]23C(=O)O[C@H]2OC(=O)[C@@H](O)[C@]231 | inactive: 0.962% | –
16 | O=C(c1ccc2c(=O)n(Cc3ccc4c(c3)OCO4)c(=S)[nH]c2c1)N1CCC2(CC1)OCCO2 | inactive: -2.1% | –
17 | CCN(CC)C(=O)N[C@@H]1C=C2c3cccc4[nH]cc(c34)C[C@@H]2N(C)C1 | inactive | –
18 | CN[C@@H](C)[C@@H](O)c1ccccc1 | – | inconclusive: 15.8 µM [inhibitor, partial curve]
19 | ClC(Cl)=C(c1ccc(Cl)cc1)c1ccc(Cl)cc1 | – | inconclusive: 25.1 µM [activator, partial curve] and inconclusive: 31.6 µM [activator, single point]
20 | N#CC(C#N)=Cc1ccc(O)c(O)c1 | – | inconclusive: 12.6 µM [inhibitor, partial curve]
21 | O=P(O)(O)c1ccccc1 (tested in a mixture with another compound) | inconclusive: 85.4% [at 11 µM] | –
22 | CC1(C)CN=C(Nc2ccccc2C(F)(F)F)S1 | inconclusive: 48.6% | –
23 | COc1ccc2[nH]c3c(c2c1)CCNC3 | inconclusive: 52.2% | –
24 | O=C(NCP(=O)(O)O)c1cccnc1 | inactive: -2.06% [at 11 µM] | –

Quoted at random: 2 entries already listed.
Row | SMILES | activity change, negative = inhibition | Potency
22 | CC1(C)CN=C(Nc2ccccc2C(F)(F)F)S1 | inconclusive: 48.6% | –
6 | Cc1noc(C)c1C(=O)N1CCC2(CCCN(CC(C)C)C2)CC1 | inactive: -11.3% | –
